Values from PubChem BioAssay AID504784 (Drosophila RNAi Screening Center, 2011).
Purpose: 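Genome-wide knock-down for genes giving too much or too little stored lipid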 (primary screen). Cells: Drosophila Kc167 embryonic cells. Knock-down reagent: long dsRNA against Drosophila genes, about 250 ng dsRNA per well. Time to read-out: 4 days. Conditions: cells fed 400 µM oleic acid bound to BSA. Measurement: 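Microscope images give a droplet-to-nucleus area ratio, taken as log and converted to a screen-wide B-score; higher values mean greater lipid storage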. Scale: droplet/nuclear area B-score: higher = more stored lipid (overstorage).
The deposit covers about 17,000 reagents; this is an unselected part of those that have a named target and a result. 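Each column is one replicate's B-score; the combined score over replicates was not deposited, so single values may mislead.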 A plus sign joins genes that one reagent is predicted to hit. Not all columns of the deposit are shown.

| target gene | amplicon | droplet/nuclear area B-score, replicate 1 |
| --- | --- | --- |
| cpx (complexin) | DRSC11999 | -0.0705 |
| Atg12 (Autophagy-related 12) | DRSC09803 | 2.15 |
| w (white) | DRSC18850 | -0.0819 |
| RpL18 (Ribosomal protein L18) | DRSC11016 | 1.65 |
| RpL18 (Ribosomal protein L18) | DRSC22323 | 4.54 |
| CG2211 | DRSC08559 | -0.534 |
| Prosbeta4R1 (Proteasome beta4 subunit-related 1) | DRSC00502 | 1.35 |
| CG8031 | DRSC16364 | 0.935 |
| CG10877 | DRSC14274 | -0.0701 |
| Ucp4C (Uncoupling protein 4C) | DRSC03132 | 1.54 |
| RacGAP84C (Rac GTPase activating protein at 84C) | DRSC12630 | -0.676 |
| Rdh1 (Retinol dehydrogenase 1) | DRSC06812 | -1 |
| tst + CG10375 | DRSC14237 | -0.109 |
| sigmar (salivary glands marred) | DRSC04449 | -0.113 |
| Cpsf73 (Cleavage and polyadenylation specificity factor 73) | DRSC16291 | 0.138 |
| Pgls (6-phosphogluconolactonase) | DRSC19769 | -2.49 |
| CG9270 | DRSC03182 | -0.0659 |
| Mrm2 (Mitochondrial rRNA methyltransferase 2) | DRSC14310 | 1.54 |
| CG15221 | DRSC19659 | 0.014 |
| LeuRS-m (Leucyl-tRNA synthetase, mitochondrial) | DRSC08595 | 0.247 |
| Or7a (Odorant receptor 7a) | DRSC18691 | 0.84 |
| CG4360 | DRSC15566 | -0.674 |
| ergic53 | DRSC11389 | -0.0174 |
| CG10089 | DRSC09694 | -1.47 |
| CG10089 | DRSC09695 | -1 |
| CG4955 | DRSC19927 | -0.322 |
| CG6067 | DRSC18399 | -0.115 |
| Edg84A (Ecdysone-dependent gene 84A) | DRSC12594 | -0.0457 |
| CG3061 | DRSC15460 | 0.0325 |
| CG5819 | DRSC04520 | -0.259 |
| CG1075 (retired record) | DRSC12144 | -1.43 |
| CG3108 | DRSC18280 | -0.0559 |
| cact (cactus) | DRSC03501 | -1.49 |
| olf413 | DRSC11543 | 1.42 |
| olf413 | DRSC11679 | -0.0499 |
| olf413 | DRSC11721 | -0.149 |
| olf413 | DRSC11833 | -1.08 |
| CG32037 | DRSC10363 | 0.87 |
| Ddr (Discoidin domain receptor) | DRSC02150 | 0.489 |
| Ddr (Discoidin domain receptor) | DRSC03229 | 2.08 |
| Ddr (Discoidin domain receptor) | DRSC03230 | -1.16 |
| Ddr (Discoidin domain receptor) | DRSC22818 | -1.28 |
| CG12885 | DRSC14572 | -0.351 |
| CG13405 | DRSC08310 | -0.0376 |
| Obp69a (Odorant-binding protein 69a) | DRSC11247 | -0.397 |
| Acp76A (Accessory gland protein 76A) | DRSC09665 | -0.381 |
| CG10598 | DRSC19358 | 0.621 |
| Gat (GABA transporter) | DRSC17144 | -0.637 |
| CAH3 (Carbonic anhydrase 3) | DRSC17776 | -0.305 |
| CG17234 | DRSC00490 | 1.83 |
| Jhedup (Juvenile hormone esterase duplication) | DRSC07173 | 1.63 |
| CG13722 | DRSC08331 | 0.674 |
| CG13722 | DRSC21616 | 0.276 |
| CG3376 | DRSC04362 | -0.904 |
| Vajk3 | DRSC01883 | 0.719 |
| Mcr (Macroglobulin complement-related) | DRSC03366 | -0.02 |
| CG6788 | DRSC20007 | -1.3 |
| CG31697 | DRSC22273 | -0.362 |
| Ugt36A1 (UDP-glycosyltransferase family 36 member A1) | DRSC00748 | 0.0194 |
| caz (cabeza) | DRSC20317 | -0.277 |
| caz (cabeza) | DRSC22594 | -2.57 |
| caz (cabeza) | DRSC23280 | -1.64 |
| Rrp1 (Recombination repair protein 1) | DRSC00784 | 0.0634 |
| CG1143 | DRSC08188 | 0.683 |
| wuc (Wake-up-call) | DRSC06152 | -0.571 |
| ND-42 (NADH dehydrogenase (ubiquinone) 42 kDa subunit) | DRSC16754 | 0.129 |
| ctp (cut up) | DRSC18758 | 2.2 |
| CG14089 | DRSC10093 | 0.0347 |
| RpLP2 (Ribosomal protein LP2) | DRSC07539 | 1.82 |
| Gfat2 (Glutamine:fructose-6-phosphate aminotransferase 2) | DRSC14598 | 2.63 |
| scny (scrawny) | DRSC10509 | 1.13 |
| scny (scrawny) | DRSC10510 | 0.653 |
| scny (scrawny) | DRSC23229 | 0.558 |
| Semp1 (Seminal metalloprotease-1) | DRSC01874 | 0.0939 |
| Cpes (Ceramide phosphoethanolamine synthase) | DRSC04475 | 1.48 |
| CG14212 | DRSC19568 | 0.0329 |
| yellow-d2 | DRSC04591 | -0.251 |
| Trpm (Transient receptor potential cation channel, subfamily M) | DRSC06629 | 0.553 |
| Trpm (Transient receptor potential cation channel, subfamily M) | DRSC21566 | 0.0474 |
| B-H1 (BarH1) | DRSC19334 | 1.95 |
| B-H1 (BarH1) | DRSC21922 | 3.75 |
| Mtpalpha (Mitochondrial trifunctional protein alpha subunit) | DRSC01994 | 0.749 |
| Osi5 (Osiris 5) | DRSC12276 | 1.07 |
